PubChem BioAssay AID1671195 – Yale University, 2021
In all, the deposit lists about 22,000 reagents; below is a part drawn at random. Of all reagents, about 1,510 (6.9%) got an active call. 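Active includes knockdowns raising or lowering LDL uptake; positive z-scores mean more uptake, negative mean less.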

Purpose: 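Genes whose knockdown alters LDL uptake in liver cancer cells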 (primary screen)
System: human Huh7 hepatoma cells
Reagents: siRNA pool against human genes, 18 nM
Timing: about 2 to 2.5 days of knockdown, then 8 h LDL uptake
Challenge: DiI-labelled LDL at 30 µg/ml for 8 h, in lipoprotein-deficient serum medium
Measurement: 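Per-cell DiI-LDL intensity by automated imaging; well means scaled to the plate median and given as a robust z-score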
Scale: robust z-score: higher = more LDL uptake after knockdown
Rule for the call: 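Active when two or more replicates show a robust z-score above 2 or below -2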

How did the screen score ZNF445 (GeneID 353274)?
robust z-score, replicate 1: -1.36; robust z-score, replicate 2: -1.29; robust z-score, replicate 3: -0.894; Outcome: inactive

Which result is listed for ACVR1 (GeneID 90)?
robust z-score, replicate 1: -0.459; robust z-score, replicate 2: -0.492; robust z-score, replicate 3: -1.42; Outcome: inactive

With UBQLNL (GeneID 143630), what does the deposit list?
robust z-score, replicate 1: 1.31; robust z-score, replicate 2: 1.28; robust z-score, replicate 3: 1.19; Outcome: inactive

What did the screen give for TSPAN5 (GeneID 10098)?
robust z-score, replicate 1: 1.63; robust z-score, replicate 2: 1.04; robust z-score, replicate 3: 1.58; Outcome: inactive

How did the screen score SAPCD2 (GeneID 89958)?
robust z-score, replicate 1: 0.205; robust z-score, replicate 2: 0.00448; robust z-score, replicate 3: -0.119; Outcome: inactive

What is on record for ZNF680 (GeneID 340252)?
robust z-score, replicate 1: -0.431; robust z-score, replicate 2: -0.457; robust z-score, replicate 3: -0.585; Outcome: inactive

For REM2 (GeneID 161253), what does the deposit list?
robust z-score, replicate 1: 0.324; robust z-score, replicate 2: -0.422; robust z-score, replicate 3: 0.291; Outcome: inactive

How did the screen score EIF3A (GeneID 8661)?
robust z-score, replicate 1: 0.379; robust z-score, replicate 2: 2.54; robust z-score, replicate 3: 0.649; Outcome: inactive

With NHERF1 (GeneID 9368), what does the deposit list?
robust z-score, replicate 1: 1.48; robust z-score, replicate 2: 0.44; robust z-score, replicate 3: 1.25; Outcome: inactive

For GSK3A (GeneID 2931), how do the results read?
robust z-score, replicate 1: -0.835; robust z-score, replicate 2: -1.01; robust z-score, replicate 3: 0.228; Outcome: inactive

With FAM43B (GeneID 163933), what was measured?
robust z-score, replicate 1: -0.451; robust z-score, replicate 2: -0.569; robust z-score, replicate 3: -0.344; Outcome: inactive

With SLFN14 (GeneID 342618), what does the deposit list?
robust z-score, replicate 1: -0.686; robust z-score, replicate 2: -0.504; robust z-score, replicate 3: -0.482; Outcome: inactive

How did the screen score SPEG (GeneID 10290)?
robust z-score, replicate 1: -1.59; robust z-score, replicate 2: -1.29; robust z-score, replicate 3: -1.68; Outcome: inactive

What is on record for GNAO1 (GeneID 2775)?
robust z-score, replicate 1: -0.472; robust z-score, replicate 2: -1.2; robust z-score, replicate 3: -0.655; Outcome: inactive

For LOC221344 (retired record) (GeneID 221344), what does the deposit list?
robust z-score, replicate 1: -0.0786; robust z-score, replicate 2: -0.376; robust z-score, replicate 3: -0.691; Outcome: inactive

With MCM9 (GeneID 254394), what does the deposit list?
robust z-score, replicate 1: -0.337; robust z-score, replicate 2: -0.282; robust z-score, replicate 3: -0.484; Outcome: inactive

What did the screen give for COL4A2 (GeneID 1284)?
robust z-score, replicate 1: 1.83; robust z-score, replicate 2: 0.134; robust z-score, replicate 3: 1.04; Outcome: inactive

For POMP (GeneID 51371), how do the results read?
robust z-score, replicate 1: 0.579; robust z-score, replicate 2: 1.34; robust z-score, replicate 3: 0.714; Outcome: inactive

How did the screen score LINC00303 (GeneID 284573)?
robust z-score, replicate 1: 1.13; robust z-score, replicate 2: 0.569; robust z-score, replicate 3: 0.936; Outcome: inactive

With LINC00511 (GeneID 400619), how do the results read?
robust z-score, replicate 1: -0.137; robust z-score, replicate 2: 0.24; robust z-score, replicate 3: 0.53; Outcome: inactive

With LINC00474 (GeneID 58483), what was measured?
robust z-score, replicate 1: -0.519; robust z-score, replicate 2: -1.16; robust z-score, replicate 3: -0.779; Outcome: inactive

For DNAJB4 (GeneID 11080), what does the deposit list?
robust z-score, replicate 1: 0.707; robust z-score, replicate 2: 1.01; robust z-score, replicate 3: 0.672; Outcome: inactive

What did the screen give for IGLON5 (GeneID 402665)?
robust z-score, replicate 1: -0.651; robust z-score, replicate 2: -0.298; robust z-score, replicate 3: -0.578; Outcome: inactive

What is on record for KIF1A (GeneID 547)?
robust z-score, replicate 1: -1.64; robust z-score, replicate 2: -1.35; robust z-score, replicate 3: -1.16; Outcome: inactive

2 neighbouring records already listed, quoted:
IGLON5 (GeneID 402665) → robust z-score, replicate 1 = -0.651; robust z-score, replicate 2 = -0.298; robust z-score, replicate 3 = -0.578; Outcome = inactive
KIF1A (GeneID 547) → robust z-score, replicate 1 = -1.64; robust z-score, replicate 2 = -1.35; robust z-score, replicate 3 = -1.16; Outcome = inactive
